Source: patent publication US7994339B2, “Phthalamide derivative, agricultural or horticultural pesticide, and use of the pesticide” (Nihon Nohyaku Co., Ltd., priority 2005, dated 2011)
Some of these results come from one statement about several compounds together.

What was measured:
Type in all cases: in vivo
Spodoptera litura = assay: Insecticidal test on Spodoptera litura (cabbage leaf dip, second-instar larvae); conditions: 500 ppm, cabbage leaves dipped about 30 seconds, 25° C., counted eight days after inoculation
[1] = system: Diamondback Moth (Plutella xylostella); assay: Insecticidal test on diamondback moth (egg-bearing Chinese cabbage seedlings dipped in drug solution); conditions: 50 ppm, seedlings with eggs dipped about 30 seconds, 25° C., counted six days after dipping
[2] = system: Smaller Tea Tortrix (Adoxophyes sp.); assay: Insecticidal test on smaller tea tortrix (tea leaf dip, larvae); conditions: 500 ppm, tea leaves dipped about 30 seconds, 25° C., humidity 70%, counted eight days after inoculation

Row | Compound | Insect mortality (rank of insecticidal activity) (Spodoptera litura) | Insect mortality (rank of insecticidal activity) [1] | Insect mortality (rank of insecticidal activity) [2]
1 | CSCC(C)(C)NC(=O)c1c(I)cccc1C(=O)Nc1cccc(-n2nnnc2-c2cccc(C(F)(F)F)c2)c1C [Compound 1-19] | A (Insect mortality 100%) | A (Insect mortality 100%) | 
2 | Cc1c(NC(=O)c2cccc(I)c2C(=O)NC(C)(C)CS(C)(=O)=O)cccc1-n1nnnc1-c1cccc(C(F)(F)F)c1 [Compound 1-21] | A (Insect mortality 100%) | A (Insect mortality 100%) | 
3 | CSC[C@H](C)NC(=O)c1c(I)cccc1C(=O)Nc1cccc(-c2nnnn2-c2cccc(C(F)(F)F)c2)c1C [Compound 2-4] |  | A (Insect mortality 100%) | 
4 | Cc1c(NC(=O)c2cccc(I)c2C(=O)N[C@@H](C)CS(C)(=O)=O)cccc1-c1nnnn1-c1cccc(C(F)(F)F)c1 [Compound 2-6] |  | A (Insect mortality 100%) | 
5 | Cc1c(NC(=O)c2cccc(I)c2C(=O)NC(C)(C)CS(C)(=O)=O)cccc1-c1nnnn1-c1cccc(C(F)(F)F)c1 [Compound 2-9] |  |  | A (Insect mortality 100%)
6 | CSCC(C)(C)NC(=O)c1c(I)cccc1C(=O)Nc1cccc(-c2nnnn2-c2ccc(C(F)(F)F)cc2)c1C [Compound 2-10] | A (Insect mortality 100%) | A (Insect mortality 100%) | 
7 | Cc1c(NC(=O)c2cccc(I)c2C(=O)NC(C)(C)CS(C)(=O)=O)cccc1-c1nnnn1-c1ccc(C(F)(F)F)cc1 [Compound 2-12] | A (Insect mortality 100%) | A (Insect mortality 100%) | 
8 | CSCC(C)(C)NC(=O)c1c(I)cccc1C(=O)Nc1cccc(-c2nnnn2-c2cc(C(F)(F)F)cc(C(F)(F)F)c2)c1C [Compound 2-16] |  | A (Insect mortality 100%) | 
9 | Cc1c(NC(=O)c2cccc(I)c2C(=O)NC(C)(C)CS(C)(=O)=O)cccc1-c1nnnn1-c1cc(C(F)(F)F)cc(C(F)(F)F)c1 [Compound 2-18] |  | A (Insect mortality 100%) | A (Insect mortality 100%)
10 | Cc1cc(-n2nnnc2C(F)(F)C(F)(F)F)ccc1NC(=O)c1cccc(I)c1C(=O)NC(C)(C)CS(C)(=O)=O [Compound 3-15] | A (Insect mortality 100%) | A (Insect mortality 100%) | 
11 | CSC[C@H](C)NC(=O)c1c(I)cccc1C(=O)Nc1ccc(-n2nnnc2C(F)(F)C(F)(F)C(F)(F)F)cc1C [Compound 3-16] | A (Insect mortality 100%) | A (Insect mortality 100%) | 
12 | Cc1cc(-n2nnnc2C(F)(F)C(F)(F)C(F)(F)C(F)(F)F)ccc1NC(=O)c1cccc(I)c1C(=O)N[C@@H](C)CS(C)(=O)=O [Compound 3-30] | A (Insect mortality 100%) | A (Insect mortality 100%) | 
13 | Cc1cc(-n2nnnc2C(F)(F)C(F)(F)C(F)(F)C(F)(F)F)ccc1NC(=O)c1cccc(Cl)c1C(=O)N[C@@H](C)CS(C)(=O)=O [Compound 3-36] | A (Insect mortality 100%) | A (Insect mortality 100%) | 
14 | CCSC[C@H](C)NC(=O)c1c(I)cccc1C(=O)Nc1ccc(-n2nnnc2C(F)(F)C(F)(F)C(F)(F)C(F)(F)F)cc1C [Compound 3-37] | A (Insect mortality 100%) | A (Insect mortality 100%) | 
15 | CSCC(C)(C)NC(=O)c1c(I)cccc1C(=O)Nc1ccc(-c2nnnn2CC(F)(F)F)cc1C [Compound 4-4] |  | A (Insect mortality 100%) | 
16 | Cc1cc(-c2nnnn2CC(F)(F)F)ccc1NC(=O)c1cccc(I)c1C(=O)NC(C)(C)C[S+](C)[O-] (stereo not shown) [Compound 4-5] |  | A (Insect mortality 100%) | 
17 | Cc1cc(-c2nnnn2-c2cc(C(F)(F)F)cc(C(F)(F)F)c2)ccc1NC(=O)c1cccc(I)c1C(=O)NC(C)(C)CS(C)(=O)=O [Compound 4-9] |  | A (Insect mortality 100%) | A (Insect mortality 100%)
